PubChem BioAssay AID445 (National Center for Advancing Translational Sciences (NCATS), 2006)
Some of the results follow. Shown are side measurements of this screen, not its main read-out; they come without a call. The list favours compounds with an active or inconclusive main result. The note in brackets gives the kind of curve behind each potency; many fits are weak.

Assay: IkB Signaling
Settings: ABC-DLBCL IkBa-CBG/CBR dual luciferase ratio (green luciferase fused to IkBa over red control in OCI-Ly3 lymphoma cells), 4 h; measured here: control luc red channel unless noted
Source text: NIH Molecular Libraries Screening Centers Network [MLSCN]
NIH Chemical Genomics Center [NCGC]
Nuclear factor kappa-B (NF-kappa-B) plays an important role in normal B cell development and survival. Diffuse large B cell lymphoma (DLBCL) is the most commonly observed type of non-Hodgkin's lymphoma. Gene expression analysis has identified an activated B cell-like subtype of DLBCL (ABC-DLBCL) which expresses known NF-kappa-B target genes. […] However, targets upstream of IKK have been largely unexplored and so nodes upstream of IKK in the NF-kappa-B pathway remain untested due to the lack of chemical probes.
A cell-sensor assay for I-kappa-B-alpha stabilization was developed with NIH investigator Dr. R. Eric Davis in Dr. Louis M. Staudt's laboratory. The assay uses green (CBG68) and red (CBR) emitting beetle luciferases [Chroma-Glo(TM) developed by Promega Corp.] where the green luciferase is fused to I-kappa-B-alpha and the red luciferase is present in its native state. Both luciferase genes are stably present in the OCI-Ly3 human ABC DLBCL cell line, but their expression is under the control of tetracycline-inducible promoters. Following the addition of doxycycline to induce expression of the luciferases, the green luminescence in control cultures rises only slowly because the CBG fusion partner I-kappa-B-alpha is targeted by IKK activity for rapid degradation. In contrast, green luminescence rises rapidly in the presence of proteasome inhibitors or IKK inhibitors. The rise in red luminescence of CBR is not affected by proteasome or IKK inhibitors, and serves as normalization for cell number and nonspecific effects. Compounds were screened as a concentration-titration series that ranged from 57 uM to 0.7 nM.
NCGC Assay Protocol Summary:
Cells were seeded in 1536-well plates at 5000 cells/3ul in IMDM medium containing 0.5% FBS, w/o phenol red, L-glutamine, 25 mM HEPES, 3 mg/ml sodium bicarbonate. After centrifugation for 1 min. at 1000 rpm, 23 nl of compounds or DMSO were delivered to each well using a pin tool. Then 1ul 80ng/ml doxycycline was dispensed into white solid 1536-well plates and the plates were incubated at 37C/5% C02 in a cell incubator for 4 hrs. Then 4 ul Chroma-Glo luminescent substrate mix (Promega) was added to each well. The plate was incubated at R.T. for 10-15 min. The plates were measured on a ViewLux plate reader for green luminescence (540/20 nm filter) and red luminescence (618/8 nm filter). The green and red luminescent signals were corrected for red and green luminescence filter overlap using previously determined filter calibration constants (determined using the procedure outlined in the Promega Technical Manual). The %Activity was determined from the ratio of corrected green/red luminescent values. Green luminescent and ratio %Activity was determined by normalizing to the difference in signal between basal cells (0% Activity) and cells incubated with 10 uM of the proteasome inhibitor MG-132 (100% Activity). Red luminescent %Activity was normalized to the difference between red luminesence in basal cells (0%Activity) and zero luminescence (-100% Activity).
Concentration-response curves were fitted to the signals arising from the green luminescence (I-kappa-B-alpha-luciferase fusion; IkB-luc) and the red luminescence (unfused luciferase; luc) as well as the calculated ratio. The concentration-effect curves were then classified based on curve quality (r2), response magnitude and degree of measured activity. Compounds were then categorized based on their concentration-response curves for all three datasets (Ikb-luc, luc and ratio).
Keywords: IKK, I-kappa-B, IkB, IkBa, cytotoxicity, luminescence, MLSMR, MLSCN, NIH Roadmap, qHTS, NCGC
With CCC(=O)n1nc(NCc2ccccc2OC)nc1NCc1ccccc1OC the AC50 was 12.6 µM [falling, partial curve].
For Cc1ccc(-c2nn(-c3ccc(F)cc3F)c3c2cnc2c(F)cccc23)cc1, the AC50 was 0.0794 µM [rising, full curve].
For Cc1ccc(NC(=O)CSc2nc3ccccc3c3nc(CCc4c(C)n[nH]c4C)nn23)c(C)c1, the AC50 was 2.51 µM [rising, partial curve].
With Cc1ccc(Cn2nnc3c(=O)n(Cc4cccc(C)c4)cnc32)cc1 the AC50 was 31.6 µM [falling, single point].
For Cc1ccc(N2C(=O)CS(=O)(=O)C23C(=O)N(C)c2ccccc23)cc1F (stereo not drawn), the AC50 was 39.8 µM [falling, single point].
In the case of Cc1ccc(C)c(Nc2cc(C(=O)NCCCN(C)C3CCCCC3)c3ccccc3n2)c1, the AC50 is reported as 25.1 µM [falling, partial curve].
For O=C(Cc1c[nH]c2ccccc12)Nc1nc2ccccc2[nH]1, the AC50 was 12.6 µM [falling, partial curve].
In the case of Cc1ccc(N2CCN(C(=O)c3c(C)oc4ncnc(N5CCOCC5)c34)CC2)c(C)c1, the AC50 is reported as 15.8 µM [falling, partial curve].
With Cc1ccc(C(=O)Nc2nnc(S(=O)(=O)N3CCN(c4ccc(F)cc4)CC3)s2)cc1 the AC50 was 12.6 µM [falling, single point].
In the case of Cc1ccc(CN2CCCn3nc(C(=O)NCc4cc(C)ccc4C)cc3C2=O)cc1, the AC50 is reported as 20 µM [falling, partial curve].
In the case of Cc1ccc(CNC(=O)c2cnc3c(-c4ccccc4)c(C)nn3c2C)o1, the AC50 is reported as 39.8 µM [falling, single point].
In the case of COCCCNC(=O)c1cnn(-c2ccc(F)cc2F)c1C1CCNCC1, the AC50 is reported as 1 µM [rising, full curve].
In the case of Nc1ccc2nc(-c3ccc(O)cc3)sc2c1, the AC50 is reported as 12.6 µM [falling, partial curve].
In the case of COc1ccc(NC(=O)CC2C(=O)N(c3ccc(F)cc3)C(=O)N2CCc2sccc2C)cc1 (stereo not drawn), the AC50 is reported as 39.8 µM [falling, single point].
With CCOc1ccc(Nc2ncnc3c2cnn3-c2ccc(F)cc2)cc1 the AC50 was 7.94 µM [falling, partial curve, poor fit].
With Cc1nc2c(C(=O)NCc3ccccc3Cl)cnn2c(C)c1Cc1ccccc1 the AC50 was 10 µM [falling, partial curve].
For Cc1ccc(C)c(-n2cc(-c3ccccc3)nc2SCC(=O)Nc2ccccc2)c1, the AC50 was 20 µM [falling, partial curve, poor fit].
With COc1cccc(-c2csc(-c3c(N)c(C(=O)c4ccccc4)n4ccccc34)n2)c1 the AC50 was 12.6 µM [falling, partial curve].
With CCOC(=O)c1ccccc1NC(=O)Cn1c(=O)n(CCCC(=O)NCc2ccc3c(c2)OCO3)c(=O)c2ccccc21 the AC50 was 31.6 µM [falling, single point].
For CC12CC(NC(=O)N1c1ccc(C(=O)N3CCN(c4ccc(F)cc4)CC3)cc1)c1ccccc1O2 (stereo not drawn), the AC50 was 15.8 µM [falling, partial curve].
In the case of Cc1ccc(Cl)cc1N1CCN(C(=O)CCS(=O)(=O)c2cccc3nonc23)CC1, the AC50 is reported as 20 µM [falling, partial curve].
In the case of COc1ccc(NC(=O)C(C)n2nc(-c3cc(C)ccc3C)c3c(c2=O)CCCC3)cc1 (stereo not drawn), the AC50 is reported as 15.8 µM [falling, partial curve].
With O=C(NCCc1ccccc1)C(=O)NCC(c1ccco1)S(=O)(=O)c1ccccc1 (stereo not drawn) the AC50 was 6.31 µM [rising, single point].
For CCOc1ccc(NC(=O)CSc2nnc(-c3ccncc3)n2-c2ccccc2)cc1, the AC50 was 0.251 µM [rising, full curve].
With Cc1ccc(C(=O)/C=C/Nc2ccccc2C(N)=O)o1 the AC50 was 6.31 µM [falling, partial curve].
For COc1ccc(CNC(=O)c2ccc(CSc3nc4ccncc4n3Cc3ccccc3F)cc2)cc1, the AC50 was 15.8 µM [falling, partial curve].
In the case of O=C(CSc1c2c(nc3cc(Cl)ccc13)CCCC2)N1CCN(c2ccccc2F)CC1, the AC50 is reported as 15.8 µM [falling, partial curve].
In the case of COc1ccccc1NC(=O)CSc1oc(-c2ccccc2)nc1S(=O)(=O)c1ccc(C)cc1, the AC50 is reported as 12.6 µM [falling, partial curve].
With Cc1ccc2nc(-c3cccnc3)c(Nc3ccc(C(C)C)cc3)n2c1 the AC50 was 0.316 µM [rising, partial curve].
For O=C(NCCc1ccc(Cl)cc1)C1COc2ccccc2C1 (stereo not drawn), the AC50 was 31.6 µM [falling, single point].
For O=C(c1ccc(F)cc1)n1nc(-c2cccnc2)nc1NCc1ccc(F)cc1, the AC50 was 12.6 µM [falling, partial curve].
In the case of Cc1nc(-c2ccc(S(=O)(=O)N3CCN(c4cc(Cl)ccc4C)CC3)cc2)co1, the AC50 is reported as 25.1 µM [falling, single point].
For Cc1ccc(S(=O)(=O)c2nc(-c3cccs3)oc2SC(C)C)cc1, the AC50 was 3.16 µM [falling, single point].
For CCCc1nnc(NC(=O)CN2C(=O)c3ccccc3S2(=O)=O)s1, the AC50 was 12.6 µM [falling, partial curve].
For COc1cc(NC(=O)N2CCC3(CC2)Nc2ccccc2-n2cccc23)cc(OC)c1OC, the AC50 was 12.6 µM [falling, partial curve, poor fit].
In the case of Cc1nc(SCC(=O)NCc2ccco2)c2c(C)c(C)sc2n1, the AC50 is reported as 31.6 µM [falling, partial curve].
With Cc1cc(C)c(NC(=O)CCCn2c(C)c3cnn(-c4ccccc4)c(=O)c3c2C)c(C)c1 the AC50 was 25.1 µM [falling, single point].
For CC(C)CC(=O)Nc1nnc(SCc2cc(=O)n3ccccc3n2)s1, the AC50 was 39.8 µM [falling, single point].
In the case of CCN(CC)S(=O)(=O)c1ccc2[nH]cc(C(=O)NCCc3ccccc3)c(=O)c2c1, the AC50 is reported as 6.31 µM [falling, partial curve].
For COc1cccc2cc(-c3nc(-c4cccs4)cs3)c(=O)oc12, the AC50 was 2 µM [falling, full curve].
In the case of CC(=O)C1=C(c2ccc(Br)cc2)N(C(C)=O)n2c(nnc2C2CCCCC2)S1, the AC50 is reported as 12.6 µM [falling, partial curve, poor fit].
In the case of COc1cccc(-n2cc(C(=O)OCc3ccc(Cl)cc3)c3ccccc3c2=O)c1, the AC50 is reported as 15.8 µM [rising, partial curve, poor fit].
In the case of CCOc1ccc(-n2c(=O)c3c(C)c(C)sc3n(CC(=O)N3CCC(C)CC3)c2=O)cc1, the AC50 is reported as 25.1 µM [falling, partial curve].
With Cc1cccc(CNC(=O)c2ccc(C)c(-n3c(C)nc4cccnc43)c2)c1 the AC50 was 5.01 µM [falling, partial curve].
With COc1cc(NS(=O)(=O)c2ccc(C)cc2)c2ncccc2c1 the AC50 was 2 µM [rising, partial curve] [measured here: IkB-luc green channel].
In the case of CCOC(=O)c1c(C)oc2nc(C)nc(NCc3cccc(Cl)c3)c12, the AC50 is reported as 39.8 µM [falling, single point].
In the case of O=C(c1cccc(Cl)c1)n1nc(-c2cccnc2)nc1NCc1ccccc1, the AC50 is reported as 15.8 µM [falling, single point].
For O=c1[nH]c(CN2CCc3ccccc32)nc2scc(-c3cccs3)c12, the AC50 was 12.6 µM [falling, partial curve].
With Cc1cc(C(=O)COC(=O)c2n[nH]c3ccccc23)c(C)n1C the AC50 was 3.98 µM [falling, partial curve].
For COc1cc(OC)cc(C(=O)Nc2nnc3n2CCS3)c1, the AC50 was 0.2 µM [falling, single point].
With O=C(CN1CCC(n2nnc3cc(C(F)(F)F)ccc32)CC1)NCc1cccs1 the AC50 was 39.8 µM [falling, single point].
In the case of CCCc1cc(=O)[nH]c(SCc2cc(C(=O)OC)c(C)o2)n1, the AC50 is reported as 25.1 µM [falling, partial curve].
In the case of CCc1ccc(NC(=O)c2c(C(=O)Nc3ccccc3)sc3nc(C)cc(=O)n23)cc1, the AC50 is reported as 12.6 µM [falling, partial curve].
In the case of COc1cc(-c2noc(C3CC(=O)N(c4cc(C)ccc4C)C3)n2)cc(OC)c1OC (stereo not drawn), the AC50 is reported as 15.8 µM [falling, partial curve].
For Cc1ccsc1CCN1C(=O)N(c2ccc(F)cc2)C(=O)C1CC(=O)Nc1ccccc1 (stereo not drawn), the AC50 was 39.8 µM [falling, single point].
For CCOc1ccc(NC(=O)Cn2cnc3c(oc4ccccc43)c2=O)cc1, the AC50 was 20 µM [falling, single point].
With COc1ccc(-c2nnc(SCC(=O)Nc3cccc(Cl)c3C)nc2-c2ccc(OC)cc2)cc1 the AC50 was 12.6 µM [falling, partial curve].
In the case of Cc1cc(C)c(NC(=O)Cn2nnc(C(=O)Nc3ccc(F)cc3F)c2N)c(C)c1, the AC50 is reported as 6.31 µM [rising, single point].
In the case of Cc1ccc(CNC(=O)c2ccc3c(c2)nc2n3CCCC2)cc1, the AC50 is reported as 10 µM [falling, partial curve].
In the case of Cc1ccc(-c2noc(CCC(=O)N(C)c3ccccc3C)n2)cc1, the AC50 is reported as 12.6 µM [falling, partial curve].
For CCc1nn2c(=O)cc(COC(=O)C3CCCCC3)nc2s1, the AC50 was 3.98 µM [rising, single point].
For CCn1cc(C(=O)NCc2ccccc2OC)c(=O)c2cc(S(=O)(=O)N3CCCCCC3)ccc21, the AC50 was 10 µM [falling, partial curve].
With CC(=O)Nc1ccc(C(=O)c2ccccc2)cc1 the AC50 was 10 µM [falling, partial curve].
